Values quoted from earlier work, collected in patent publication US20240199754A1 (VANCOUVER BIOTECH LTD., priority 2021, published 2024).
Some results were stated once for a whole list of compounds, not compound by compound. Square brackets hold non-standard residues; d marks the D form. Peptide text beside a SMILES is read from it. dPhe(4-Cl) = N[C@H](Cc1ccc(Cl)cc1)C(=O)O; d2Nal = N[C@H](Cc1ccc2ccccc2c1)C(=O)O; dCit = NC(=O)NCCC[C@@H](N)C(=O)O; d3Pal = N[C@H](Cc1cccnc1)C(=O)O

Conditions: in most cases; cited from earlier work

## CC(=O)N[C@H](Cc1ccc2ccccc2c1)C(=O)N[C@H](Cc1ccc(Cl)cc1)C(=O)N[C@H](Cc1cccnc1)C(=O)N[C@@H](CO)C(=O)N[C@@H](Cc1ccc(O)cc1)C(=O)N[C@H](CCCNC(N)=O)C(=O)N[C@@H](CC(C)C)C(=O)N[C@@H](CCCNC(=N)N)C(=O)N1CCC[C@H]1C(=O)N[C@H](C)C(N)=O [Cetrorelix] (Ac-[d2Nal][dPhe(4-Cl)][d3Pal]SY[dCit]LRP[dA]-NH2)
  half-life: 1 to 10 h
